# Measurements as given in the supplement of paper PMC8256030.
# Where “and” joins values, the source holds several entries; their conditions need not be identical. Equal entries are not always repeated. Structures can show the parent of a compound that is named as a salt. This is one part of the list. This data set is noisy: repeats of one test often differ as much as different tests do.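 HEK293T cells were given each compound shortly before transfection with a reporter in which red mCherry is followed by the SARS-CoV-2 frameshift element and then GFP in the −1 frame, so GFP appears only after frameshifting.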
# What was measured:
# [1] = tested on: SARS-CoV-2 -1 PRF reporter mCherry-FSE-GFP(-1); experiment: mCherry (red) intensity as percent of control; higher = higher upstream reporter expression; conditions: 10 µM; 24 h; HEK293T
# [2] = tested on: SARS-CoV-2 -1 PRF reporter mCherry-FSE-GFP(-1); experiment: percent effect, decrease of GFP/mCherry ratio (-1 PRF reporter) relative to controls; higher = stronger frameshift inhibition; conditions: 10 µM; 24 h; HEK293T
Compound,mCherry [1],percent effect [2]
Cc1ccc(O)c2ncccc12 [tiliquinol],107%,-2.27%
C[C@@H](O)[C@@H]1NC(=O)[C@H](CCCCN)NC(=O)[C@@H](Cc2c[nH]c3ccccc23)NC(=O)[C@H](Cc2ccccc2)NC(=O)[C@@H](NC(=O)[C@H](N)Cc2ccccc2)CSSC[C@@H](C(=O)N[C@H](CO)[C@@H](C)O)NC1=O [Sandostatin],117%,-2.26%
CCCCCCCC/C=C\CCCCCCCC(=O)NCc1ccc(O)c(OC)c1 [olvanil],86.2%,-4.69%
Nc1[nH]cnc2ncnc1-2 [Adenine],86.3%,-4.42%
CN(C)CC[C@@H](c1ccc(Cl)cc1)c1ccccn1 [dexchlorphenamine],101%,-1.95%
CC(C)NCC(O)c1ccc(NS(C)(=O)=O)cc1 (centres undefined) [Sotalol·HCl],99.3%,-1.23%
CCC[C@@H]1C[C@@H](C(=O)N[C@@H]([C@H]2O[C@H](SC)[C@H](O)[C@@H](O)[C@H]2O)[C@H](C)Cl)N(C)C1 [clindamycin],61.9%,-2.41%
O=C(O)c1cc(=O)[nH]c(=O)[nH]1 [orotic acid],108%,-2.86%
C[n+]1cc2c3c(ccc2c2ccc4cc5c(cc4c21)OCO5)OCO3 [sanguinarium chloride],11.1%,1.4%
CCc1cccc(N(C)C(=N)Nc2cccc3ccccc23)c1 [aptiganel],87.8%,1.71%
O=C1NC(=O)C(c2ccccc2)(c2ccccc2)N1 [phenytoin],96.8% and 110%,-0.981% and 2.6%
CC(=O)OCC(CCn1cnc2cnc(N)nc21)COC(C)=O [famciclovir],90.6% and 66.4%,-3.81% and -3.19%

# Two records picked at random from the list so far:
Compound,mCherry [1],percent effect [2]
CN(C)CC[C@@H](c1ccc(Cl)cc1)c1ccccn1 [dexchlorphenamine],101%,-1.95%
Nc1[nH]cnc2ncnc1-2 [Adenine],86.3%,-4.42%
